Out of some 1,200 compounds screened, about 140 (12%) were called active.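 How the source made its calls: active means fitted curve falls past -35% activity change at a dose under twice the top valid dose, in every replicate test; inconclusive means replicate tests disagree on the call; inactive means the rest, including activity in the opposite direction.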 This part holds few or none of the hits.
Test: CFTR-F508del correctors, dose response, FRT cells, YFP quenching, cherry-pick (AID 743402);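 further: compounds act as correctors raising surface CFTR-F508del before acute activation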
Conditions: FRT CFTR-F508del YFP iodide quenching, 24 h, channel opened with forskolin and a potentiator; at 26 µM (top of the series) unless noted

Activity change, negative = more quenching (active), inactive:
Cc1ccc(S(=O)(=O)N2CCN(C(=O)CN(Cc3ccco3)Cc3cccs3)CC2)cc1 13.4%
Cc1ccc(NC(=O)COc2ccc(Br)cc2CO)cc1S(=O)(=O)N1CCOCC1 18.1%
COC(=O)CSC1=C(C#N)C(c2ccc(C)o2)CC(=O)N1 (configuration not stated) -3.33%
Nc1sc(-c2ccccc2)cc1-c1n[nH]c(=S)n1C1CCCCC1 0%
COc1cc(-c2cnc3c(NC=O)cc(-c4cccc(C(F)(F)F)c4)cn23)cc(OC)c1OC 18.8%
CCCCC(=NCCc1c(C)[nH]c2ccccc12)C1=C(O)CC(c2ccccc2)CC1=O (configuration not stated) 16.4%
Cc1cc2c(cc(C(=O)OC(C)C(=O)NCc3ccc(F)cc3)n2C)o1 (configuration not stated) 26.7%
Cc1cnc(NC(=O)CCc2ccccc2)s1 -10%
CC(C)(C)c1cc(C(=O)NN)n(Cc2ccc(Cl)cc2Cl)n1 6.67%
C#Cc1ccc(NC(=O)C2(C)CCN2C(=O)c2cc(C)n(C)n2)cc1 (configuration not stated) 16.7%
O=C(CSc1nnc(Cn2c(=O)sc3ccccc32)n1-c1ccccc1)NCc1ccco1 10%
O=C(Nc1cc(F)ccc1F)N1CC(=O)N2[C@@H](CO)[C@H](c3ccc(C#CC4CCCCC4)cc3)[C@@H]2C1 6.46%
Cc1ccc(N(C)S(=O)(=O)c2ccc(-c3cnc(C4CC4)o3)cc2)cc1 6.67%
CCCNC(=O)N1C[C@@H]2[C@H](c3ccccc31)[C@H](CO)N2Cc1ccc(OC)cc1 0%
O=C(COC(=O)C1CCC1)Nc1cc(S(=O)(=O)N2CCOCC2)ccc1Cl 13.9%
CCOc1ccc2[nH]c(C(=O)N/N=C/c3ccc(OC)cc3)cc2c1 -10%
CO/N=C\CC(=O)Nc1ccc(Cl)cc1Cl -3.12%
C[C@@H]1CN([C@@H](C)CO)C(=O)c2cccc(NC(=O)NC3CCCCC3)c2O[C@@H]1CN(C)Cc1ccc(Cl)c(Cl)c1 14.3%
Cc1ccc(S(=O)(=O)N[C@H](C(=O)OCC(=O)NC(=O)C2CCCCC2)C(C)C)cc1 12.9%
COc1ccc(C2c3ccc4ccccc4c3Oc3ncn(CCCO)c(=N)c32)cc1OC (configuration not stated) -6.46%
N#CC1=C(N)OC2=C(CCc3ccccc32)C1c1ccccc1Cl (configuration not stated) -10%
Oc1c(Cl)cc(CN2CCOCC2)c2cccnc12 -3.85%
CC(C)(C)C(=O)Nc1ccc(S(=O)(=O)NC2=NCCCCC2)cc1 -3.12%
O=C(Nc1cccc(C2=NCCN2)c1)Nc1cccc(C2=NCCN2)c1 0%
Cc1cc(C(=O)NNC(=O)c2ccc(Cl)c(S(N)(=O)=O)c2)c(C)o1 18.1%
CCc1ccccc1N(C)S(=O)(=O)c1ccc(-c2cc(C)no2)s1 5.05%
CCCCN(C(=O)c1cc(S(=O)(=O)N2CCCCC2)ccc1Cl)c1c(N)n(CC(C)C)c(=O)[nH]c1=O 10%
COc1ccc(NS(=O)(=O)c2cc(NC(=O)Cc3c(F)cccc3Cl)ccc2OC)cc1 22.7%
Cc1nn2cc(-c3cccc(Cl)c3)cnc2c1Br 9.58%
CC1(C(=O)NCc2ccccc2)Cc2c(-c3ccc(C(N)=O)cc3)ccnc2O1 (configuration not stated) -3.33%
COc1cc(/C=C/C(=O)c2ccc3c(c2)OCO3)cc(Cl)c1O -24%
CCOC1=C2CN(S(=O)(=O)c3ccc(C)cc3)CC[C@@H]2N(S(=O)(=O)c2ccc(C)cc2)[C@H](c2ccccc2)C1 -26.7%
COc1ccc(S(=O)(=O)Nc2cccc3ccc(O)cc23)cc1 3.12%
CCN(CC)c1ccc2c(cc1=O)[C@@H](NC)CCc1cc(OC)c(OC)c(OC)c1-2 10%
O=C(Nc1ccc(Br)cn1)c1cccc2ccccc12 -20%
COc1cccc(S(=O)(=O)N(C)C[C@@H]2Oc3cc(C4=CCCC4)ccc3S(=O)(=O)N([C@@H](C)CO)C[C@H]2C)c1 5.3%
O=S(=O)(c1ccc(OCc2ccc(Br)cc2)cc1)N1CCOCC1 17.9%
CC(=O)Nc1ccc(Nc2c3ccccc3nc3ccccc23)cc1 -6.25%
CC1CN(S(=O)(=O)c2ccc(C(=O)N3CCc4ccccc43)cc2)CC(C)O1 (configuration not stated) 10%
CC(C)Nc1ccc(Nc2ccnc3cc4ccccc4cc23)cc1 -20%
COc1ccc2c3c([nH]c2c1)[C@H](CO)N(S(C)(=O)=O)CC31CCN(Cc2cccc(F)c2)CC1 -6.46%
O=C(CN1CCOc2ccccc21)NCc1ccc(Cl)cc1 10%
O=C(CNC1CCCCC1)NN=C(c1ccccc1)c1ccccc1 13.9%
CN(CC(=O)Nc1ccc(Cl)c(C(F)(F)F)c1)C(=O)CCN1C(=O)C2CCCCC2C1=O (configuration not stated) 12.9%
COc1ccccc1C#Cc1ccc2c(c1)O[C@H](CN(C)Cc1cccnc1)[C@H](C)CN([C@@H](C)CO)S2(=O)=O 13.8%
CC(C)CC#Cc1ccc([C@@H]2[C@@H](CO)N3CCCCN(C(=O)NC4CCCC4)C[C@H]23)cc1 3.12%
Brc1ccc2c(c1)C(C1=NCCN1)c1ccccc1CS2 (configuration not stated) 23.3%
CN1c2ccc(-c3ccc(C#N)cc3)cc2[C@H]2[C@H](CCN2S(=O)(=O)c2cccc(F)c2)[C@@H]1CO 3.57%
CN(Cc1ccco1)c1ncnc2ccc(-c3ccc4c(ccn4C)c3)cc12 -20%
Cc1ccc(OCCNC(=O)c2cccc(S(=O)(=O)NCc3ccccc3)c2)cc1 3.33%
CCN(CC)c1ccc(/C=N/NC(=O)c2ccco2)c(O)c1 10.7%
O=C1OCC2=C1C(c1ccc3c(c1)OCO3)c1cc3c(cc1O2)OCO3 (configuration not stated) 3.33%
COc1cc(C(=O)Nc2ccc3c(c2)ncn3C)cc(OC)c1OC 3.12%
COc1ccc(N2CCc3c(C)nc4c(OC)cc(OC)cc4c32)cc1 0%
CCOC(=O)c1ccc(Nc2sc(C(=O)c3cccc([N+](=O)[O-])c3)c(N)c2C#N)cc1 -6.25%
O=C(Nc1ccc(F)cc1)Nc1ccc(N2CCOCC2)c2nonc12 -13.3%
COc1ccc(N=C2C(=O)N3CCCc4cccc2c43)cc1 -1.85%
OC[C@H]1[C@H](c2ccc(C#CC3(O)CCCC3)cc2)[C@H]2CN(Cc3ccccc3F)CCCCN21 -3.12%
Cc1cc(Br)cn2c(Cc3ccsc3)c(-c3ccc(F)cc3)nc12 5.42%
C[C@H](CO)N1C[C@H](C)[C@@H](CN(C)Cc2ccc(Cl)c(Cl)c2)Oc2ccc(NC(=O)Nc3ccc(C(F)(F)F)cc3)cc2CC1=O 10.2% [at 23.5 µM]
Nc1ccn(C2OC(CO)C(O)C2O)c(=O)n1 (configuration not stated) 13.3%
COCC(=O)N1CC2(CCN(Cc3ccccc3)CC2)c2c([nH]c3cc(OC)ccc23)[C@H]1CO -3.12%
O=C(COC(=O)c1cc([N+](=O)[O-])ccc1N1CCOCC1)Nc1c(Cl)cccc1Cl -23.3%
COc1ccc(CNS(=O)(=O)c2cc(-c3cc(C)no3)ccc2C(C)C)cc1 -3.33%
CCOc1ccc(C(=O)NNC(=O)CCNC(=O)c2ccc(Br)cc2)cc1OC 14.3%
O=C(NCCCN1CCOCC1)c1sc2cc(Cl)ccc2c1Cl 6.46%
CC(C)Nc1nc(Nc2ccc(C#N)cc2)c2sccc2n1 -40%
CC(=O)N1CCc2cc(S(=O)(=O)N3c4ccccc4CC3C)ccc21 (configuration not stated) 0%
COc1ccc(NC(=O)C(=O)c2cn(CC(=O)N3CCCC3)c3ccccc23)cc1OC 0%
CC(=NNC(=S)N(Cc1ccccn1)Cc1ccccn1)c1cnccn1 -6.25%
C[C@H]1CNC(=O)c2c(C(=O)Nc3ccc(CNC(=O)OC(C)(C)C)cc3)ncn21 18.8%
COc1ccc2oc(C(=O)N3CCN(C(=O)c4ccco4)CC3)c(C)c2c1 -3.12%
O=C1C=C(NCCc2cc(Br)c(O)c(Br)c2)C(=O)c2ncccc21 -7.97%
Cc1ccc(C(=O)OCC(=O)NCc2cc(C)c(O)c(C)c2)cc1S(=O)(=O)N1CCCCC1 13.3%
O=C(/C=C/c1ccco1)NC(=S)Nc1nc(-c2ccc3ccccc3c2)cs1 3.33%
Cc1ccc(-c2cccc(-c3cc(=O)oc4ccc(C(C)(C)C)cc34)c2)cc1 20%
NNC(=O)c1[nH]c2ccc(Cl)cc2c1-c1ccccc1 13.3%
Clc1ccc(CSc2nncn2-c2ccc3c(c2)OCCO3)cc1 3.33%
O=C1NC(=Nc2cccnc2)S/C1=C/c1ccc(F)cc1 0%
O=C(O)CCCCCCCCc1cn(Cc2ccc(C(=O)c3ccccc3)cc2)nn1 0%
NC1(C(=O)O)CC1 0%
COc1ccccc1NC(=O)CSc1ccc(-c2ccccn2)nn1 -3.33%
COC(=O)Cc1c(O)ccn(Cc2ccc(Cl)c(Cl)c2)c1=O 0%
O=c1[nH]c(/C=C/c2ccccc2F)nc2ccccc12 9.58%
CCN1CCCC(OC(=O)c2cc(-c3ccccc3Cl)nc3ccccc23)C1 (configuration not stated) 6.46%
Nc1ccn([C@H]2C[C@H](O)[C@@H](CO)O2)c(=O)n1 12.9%
CC1=Nc2cc(C(=O)NCC3CCCO3)ccc2Sc2ccc(C)cc21 (configuration not stated) 6.46%

A portion from further up, for reference:
Activity change, negative = more quenching (active), inactive:
NC1(C(=O)O)CC1 0%
COc1ccccc1NC(=O)CSc1ccc(-c2ccccn2)nn1 -3.33%

In the list so far, three have a CF3 group.
Activity change, negative = more quenching (active), inactive:
COc1cc(-c2cnc3c(NC=O)cc(-c4cccc(C(F)(F)F)c4)cn23)cc(OC)c1OC 18.8%
CN(CC(=O)Nc1ccc(Cl)c(C(F)(F)F)c1)C(=O)CCN1C(=O)C2CCCCC2C1=O (configuration not stated) 12.9%
C[C@H](CO)N1C[C@H](C)[C@@H](CN(C)Cc2ccc(Cl)c(Cl)c2)Oc2ccc(NC(=O)Nc3ccc(C(F)(F)F)cc3)cc2CC1=O 10.2% [at 23.5 µM]

Reference: PubChem BioAssay AID743402 (Broad Institute, 2014)
